Results taken from patent US9770530B2, “Tissue substitute material with biologically active coating” (LACERTA TECHNOLOGIES INC., priority 2013, dated 2017).
Converted amounts (≈) assume the structure as drawn.

System: Enterococcus faecalis
Assay: MIC determination
Format: cell-based
Details: data not shown

Work on CN[C@H](CC(C)C)C(=O)N[C@H]1C(=O)N[C@@H](CC(N)=O)C(=O)N[C@H]2C(=O)N[C@H]3C(=O)N[C@H](C(=O)N[C@H](C(=O)O)c4cc(O)cc(O)c4-c4cc3ccc4O)[C@H](O)c3ccc(c(Cl)c3)Oc3cc2cc(c3O[C@@H]2O[C@H](CO)[C@@H](O)[C@H](O)[C@H]2O[C@H]2C[C@](C)(N)[C@H](O)[C@H](C)O2)Oc2ccc(cc2Cl)[C@H]1O [vancomycin] yielded an MIC of 0.2 µg/mL (≈ 0.138 µM).
